This data set can be described thus: Metal-chelating study by UV-vis spectrophotometry in methanol. Type of data set: physicochemical.

The source of these data is PMC6272137, “Synthesis and Evaluation of Paeonol Derivatives as Potential Multifunctional Agents for the Treatment of Alzheimer’s Disease” (Molecules, 2015).

For the molecule `COc1ccc(C(=O)CN2CCN(Cc3ccc(C)cc3)CC2)c(O)c1` [5b, 1-(2-Hydroxy-4-methoxyphenyl)-2-(4-(4-methylbenzyl)piperazin-1-yl) ethanone], the “UV spectrum change on addition of CuCl2” value (40 μM compound, 40 μM CuCl2, methanol, peak at 275 nm shifted to 271 nm) is “could interact with Cu^2+ effectively”. Also, the “UV spectrum change on addition of FeSO4” value (40 μM compound, 40 μM FeSO4, methanol) is given as “absorption intensity change could also be observed”. Besides, the “UV spectrum change on titrating with Zn^2+” value (40 μM compound, 40 μM ZnCl2, methanol) is on record as “little change”. Further, for the setting “molar ratio method, 40 μM compound titrated with CuCl2 in methanol, absorbance at 375 nm”, the “mole fraction at intersection of the two straight lines” value stood at 0.98.
